# At least one compound was matched to its structure with a doubt left.
# Assay: Test Method C2 - Second % Recovery of CHG by HPLC Analysis
# Assay type: physicochemical
# Conditions: CHG 0.22 wt % control, excipient 0.0 wt %
structure (smiles),measurement,value
"N=C(NCCCCCCNC(=N)NC(=N)Nc1ccc(Cl)cc1)NC(=N)Nc1ccc(Cl)cc1.O=C(O)[C@H](O)[C@@H](O)[C@H](O)[C@H](O)CO.O=C(O)[C@H](O)[C@@H](O)[C@H](O)[C@H](O)CO [CHG Control, 1,11-hexamethylene bis[5-(p-chlorophenyl)biguanide]di-D-gluconate, reference compound]",HPLC % Recovery CHG,100.0%
